Experimental data published in PubChem BioAssay AID2517 (National Center for Advancing Translational Sciences (NCATS), 2010).
Values joined by “and” are separate entries in the source; they are usually repeats but may differ in a detail not shown here. Equal entries are not always repeated. Among all 350,000 compounds or so, about 1,200 (0.34%) were called active. The shares of active, inactive and inconclusive entries below differ from those in the screen. The call rests on the fitted dose curve; in most records, active means well fitted inhibition curve with a large enough effect; inconclusive means small, poorly fitted or top-dose-only effect; inactive means no such curve, though single readings can be large or run the other way. Where the call is inconclusive, the potency comes from a doubtful curve fit.

Chains of the proteins cited; added tags and fusions are not shown.
UniProt P27695, whole entry, looked up: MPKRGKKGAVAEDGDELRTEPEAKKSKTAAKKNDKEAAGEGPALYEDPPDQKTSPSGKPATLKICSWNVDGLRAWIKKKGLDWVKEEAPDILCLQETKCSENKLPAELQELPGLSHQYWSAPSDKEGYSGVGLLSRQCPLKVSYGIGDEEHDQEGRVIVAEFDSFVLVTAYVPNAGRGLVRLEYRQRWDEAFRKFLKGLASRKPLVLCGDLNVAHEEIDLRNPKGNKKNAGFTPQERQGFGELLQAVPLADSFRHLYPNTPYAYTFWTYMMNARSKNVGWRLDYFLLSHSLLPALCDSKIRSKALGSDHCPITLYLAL

These compounds were tested against DNA repair nuclease/redox regulator APEX1 (Homo sapiens) (UniProt P27695) (assay: qHTS Assay for Inhibitors of the Human Apurinic/apyrimidinic Endonuclease 1 (APE1)). Details: recombinant APE1, TAMRA/BHQ-2 abasic DNA cleavage fluorescence; activity change, negative = inhibition: at 65.8 µM (top of the series).
In short: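 Compound pre-exposure to 0.75 nM APE1, 15 min at ambient temperature. Reaction initiated with 50 nM TAMRA/BHQ-2 THF substrate, read immediately in kinetic mode, 525 nm excitation, 598 nm emission.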
Further: nearly all actives have a fitted effect of over 55% in size.
Potency means the concentration at half of the fitted maximal effect.
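Wherever activity change, negative = inhibition is given: plate controls were vehicle for no effect and reference inhibitor for full effect.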

SMILES	Potency	activity change, negative = inhibition
Cc1ccc2nc(SCC(=O)N3CCN(C(=O)c4ccco4)CC3)[nH]c2c1	inactive	
COc1cc(NC(N)=S)c(OC)cc1Cl	inconclusive: 3.16 µM [inhibitor, single point]	
Cc1cc(C)n(-c2ccc3nnc(C)n3n2)n1	inconclusive: 0.0158 µM [inhibitor, full curve]	
C#Cc1ccc2c(c1)C(=O)N(C)Cc1c(C(=O)OCCCOC(=O)c3ncn4c3CN(C)C(=O)c3cc(C#C)ccc3-4)ncn1-2	inactive	
CCOc1ccc2nc(NC(=O)c3ccccn3)sc2c1	inconclusive: 3.55 µM [inhibitor, single point]	
CCOC(=O)c1cc(-c2ccco2)nc2c1c(C)nn2-c1cccc(Cl)c1	inactive	
CCn1c(O)c2ccc(C(=O)N=NC(=O)c3ccccc3)cc2c1O	inactive	
CO[C@@]12[C@@H](COC(N)=O)C3=C(C(=O)C(C)=C(N)C3=O)N1C[C@@H]1N[C@@H]12	inconclusive: 39.8 µM [inhibitor, partial curve]	
CN(C)/C=N/c1cc(=O)n(C)c(=O)n1CC1CC1	inconclusive: 1.78 µM [inhibitor, partial curve]	
CCC1S/C(=C(\C#N)C(=O)NCc2ccco2)N(c2ccc(Br)cc2)C1=O (stereo not drawn)	inactive	
O=c1c(C(c2ccccc2)c2c(O)nc3n(c2=O)CCS3)c(O)nc2n1CCS2	inconclusive: 0.112 µM [inhibitor, full curve, poor fit]	
c1ncc(CCCC2CCNCC2)[nH]1	inactive	
CCOC(=O)N/N=C1/C[C@@H](O)[C@@H](O)[C@@H]2[C@@H]3C(=O)N(C[C@@H]4CCCO4)C(=O)[C@H]3CC[C@@H]12	inconclusive: 8.91 µM [inhibitor, single point]	
CC(=O)c1ccc(OCC(=O)c2cc(C)n(-c3ccc4c(c3)OCO4)c2C)cc1	inconclusive: 7.94 µM [inhibitor, full curve]	
CNC(=S)N1N=C(c2ccc(OC)cc2)CC1c1ccc(Cl)cc1Cl (stereo not drawn)	inconclusive: 22.4 µM [inhibitor, single point]	
O=C(COC(=O)c1ccc(S(=O)(=O)NCc2ccco2)cc1)Nc1ccc(Cl)cn1	inconclusive: 39.8 µM [inhibitor, single point]	
Cc1c(N)cc(N)cc1C(=O)O	active: 20 µM	
CO[C@@H]1COC(=O)C/C=C\[C@@H](C)COC(=O)[C@H](COCc2ccccc2)NC(=O)C/C=C\[C@H]1C	inconclusive: 4.47 µM [inhibitor, single point]	
N#C/C(=C(/O)COc1ccc(Br)cc1)c1nnc2n1CCCCC2	inconclusive: 44.7 µM [inhibitor, single point]	
O=C(N/N=C/C=C/c1ccco1)c1cccc([N+](=O)[O-])c1	inactive	
CCOc1ccccc1N(CC(=O)Nc1c(C)n(C)n(-c2ccccc2)c1=O)S(=O)(=O)c1ccccc1	inconclusive: 44.7 µM [inhibitor, single point]	
C=Cc1ccc([C@H]2N[C@@H](C(=O)O)CC[C@@H]2C)cc1		inactive: 20.3% [at 12.4 µM]

SMILES	Potency	activity change, negative = inhibition
Cc1cccc(-n2c(=O)[nH]c3c(C(N)=O)nc(-c4ccccc4Cl)nc32)c1	inconclusive: 12.6 µM [inhibitor, partial curve, poor fit]	
O=C(CCNC(=O)c1ccccc1)OCC(=O)c1ccccc1	inconclusive: 0.224 µM [inhibitor, full curve, poor fit]	
Cc1ccc(OCC(=O)Nc2ccc(N3CCN(C(=O)c4ccco4)CC3)cc2)cc1C	inactive	
CCCCCCC(=O)Cc1cc(OC)c(OC)cc1C=C(C(=O)OCC)C(=O)OCC	inconclusive: 3.16 µM [inhibitor, partial curve] and inconclusive: 7.94 µM [inhibitor, single point]	
O=C(O)/C=C/c1ccc(S(=O)(=O)Nc2ccc(C(=O)NCC(=O)O)cc2)cc1	inconclusive: 22.4 µM [inhibitor, single point]	
Cc1cccc(N2CCN(C(=O)/C=C/c3cccs3)CC2C)c1 (stereo not drawn)	inactive	
O=C(/C=C/c1ccco1)NC1=NCCS1	inconclusive: 39.8 µM [inhibitor, single point]	
COc1ccc(Nc2nnc(-c3ccncc3)s2)cc1Cl	inconclusive: 9.47 µM [inhibitor, partial curve]	
O=C(CSc1nnc(CNC(=O)c2c(F)cccc2Cl)o1)NCc1ccccc1	inactive	
O=C1ON=C(c2ccc([N+](=O)[O-])cc2)/C1=C/c1ccccc1O	inactive	
CCCCCCC(=O)Cc1cc(OC)c(OC)cc1/C=C(/C(C)=O)C(=O)OC	inconclusive: 5.62 µM [inhibitor, single point]	
O=C(O)c1ccc(N/N=C/c2ccc3nccnc3c2)cc1	inconclusive: 39.8 µM [inhibitor, single point]	
CC(=O)Nc1ccc(NC(=O)COc2ccc(Br)cc2C)cc1	inconclusive: 50.1 µM [inhibitor, partial curve]	
CCOC(=O)/C=C1\SCC(=O)N1CC(=O)NC(C)C	inconclusive: 12.6 µM [inhibitor, partial curve, poor fit]	
O=C(Nc1ccc(C(F)(F)F)cn1)Nc1cccs1	inconclusive: 3.98 µM [inhibitor, single point]	
Cc1ccc(Cn2cnc3c(cnn3C(C)(C)C)c2=O)c(F)c1	inconclusive: 0.501 µM [inhibitor, full curve]	
Cc1onc(-c2c(F)cccc2Cl)c1C(=O)NC(=S)NCc1cccnc1	inconclusive: 3.55 µM [inhibitor, single point]	
CCOC(=O)c1c[nH][nH]c1=O	inconclusive: 23.8 µM [inhibitor, single point]	
Cc1ccsc1/C=N/NC(=O)c1cccs1	inactive	
Cc1ccc(/C=C(\CCC(=O)O)c2nc3ccccc3s2)cc1[N+](=O)[O-]	inactive	
CC1=C(C(=O)OCc2ccccc2)C(c2cccnc2)c2c(n(C)c(=O)n(C)c2=O)N1 (stereo not drawn)	inconclusive: 0.0398 µM [inhibitor, full curve, poor fit]	

Another view of part of the listing above:
SMILES | Potency | activity change, negative = inhibition
Cc1ccc(OCC(=O)Nc2ccc(N3CCN(C(=O)c4ccco4)CC3)cc2)cc1C | inactive | 
CCCCCCC(=O)Cc1cc(OC)c(OC)cc1C=C(C(=O)OCC)C(=O)OCC | inconclusive: 3.16 µM [inhibitor, partial curve] and inconclusive: 7.94 µM [inhibitor, single point] | 
O=C(O)/C=C/c1ccc(S(=O)(=O)Nc2ccc(C(=O)NCC(=O)O)cc2)cc1 | inconclusive: 22.4 µM [inhibitor, single point] | 
O=C1ON=C(c2ccc([N+](=O)[O-])cc2)/C1=C/c1ccccc1O | inactive | 
CCCCCCC(=O)Cc1cc(OC)c(OC)cc1/C=C(/C(C)=O)C(=O)OC | inconclusive: 5.62 µM [inhibitor, single point] | 
CCOC(=O)/C=C1\SCC(=O)N1CC(=O)NC(C)C | inconclusive: 12.6 µM [inhibitor, partial curve, poor fit] | 
O=C(Nc1ccc(C(F)(F)F)cn1)Nc1cccs1 | inconclusive: 3.98 µM [inhibitor, single point] | 
Cc1onc(-c2c(F)cccc2Cl)c1C(=O)NC(=S)NCc1cccnc1 | inconclusive: 3.55 µM [inhibitor, single point] | 
CCOC(=O)c1c[nH][nH]c1=O | inconclusive: 23.8 µM [inhibitor, single point] | 
Cc1ccsc1/C=N/NC(=O)c1cccs1 | inactive | 
